{"source": "PubChem BioAssay AID1935", "about": "(Broad Institute, 2009)", "note": "In all, about 1,200 compounds were measured (“activity change, negative = cytotoxic”: median about -53, highest 2% from about 78 on). This is one part of the list. Entries with a potency or affinity are not part of this list. The source made no clear call on entries shown without one."}
{"assay": "BJ-TERT-LT-ST fibroblast viability loss – cell-based, RAS-independent, luminescence, dose response (AID 1935)", "settings": "ATP luminescence; at 15 µM (top of the series)", "units": {"activity change, negative = cytotoxic": "%"}}
{"molecule": "CCOc1ccc(C2=Nn3c(nnc3-c3ccccc3OC)SC2)cc1", "activity change, negative = cytotoxic": -52.7}
{"molecule": "COc1ccccc1-c1nnc2sc(-c3ccc(N(C)C)cc3)nn12", "activity change, negative = cytotoxic": -49.1}
{"molecule": "O=C(/C=C/c1cccc(Cl)c1)c1ccc([N+](=O)[O-])o1", "activity change, negative = cytotoxic": 77.8}
{"molecule": "COc1ccc(COC(=O)c2cc([N+](=O)[O-])ccc2N2CCOCC2)cc1F", "activity change, negative = cytotoxic": -51.5}
{"molecule": "O=C(N/N=C/C(Br)=C\\c1ccccc1)c1n[nH]c2c1CCC2", "activity change, negative = cytotoxic": -22.8}
{"molecule": "Cc1ccc(Nc2nc(-c3c(C)nc4ncccn34)cs2)cc1", "activity change, negative = cytotoxic": -39.1}
{"molecule": "N#CC1=C(N)Oc2c(ccc3ccccc23)C1c1ccsc1", "note": "(stereo not given)", "activity change, negative = cytotoxic": -54.9}
{"molecule": "COc1ccc(/C=N/NC(=O)c2[nH]c3ccc(Br)cc3c2-c2ccccc2)cc1", "activity change, negative = cytotoxic": -47.8}
{"molecule": "COc1ccc(C(=O)NN(C)c2nc(C(F)(F)F)nc3ccccc23)cc1", "activity change, negative = cytotoxic": -52.9}
{"molecule": "Cc1cccc(C)c1NS(=O)(=O)c1ccc(-c2cnc(C3CC3)o2)cc1", "activity change, negative = cytotoxic": -64.4}
{"molecule": "COc1cccc(N2CCN(C(=O)c3ccc(CS(=O)c4ccccc4Cl)o3)CC2)c1", "note": "(stereo not given)", "activity change, negative = cytotoxic": -51.6}
{"molecule": "COc1cc(-c2noc(C)c2-c2ccc(N(C)C)nc2)cc(OC)c1OC", "activity change, negative = cytotoxic": -53}
{"molecule": "Cc1ccc(Nc2nc(N)nc(-c3oc4ccccc4c3C)n2)cc1", "activity change, negative = cytotoxic": -64.4}
{"molecule": "CN[C@H]1CCc2cc(OC)c(OC)c(OC)c2-c2ccc(OC)c(=O)cc21", "activity change, negative = cytotoxic": -51.3}
{"molecule": "COc1cc(C2C(C#N)=C(N)Oc3cc(N(C)C)ccc32)cc2c1OCO2", "note": "(stereo not given)", "activity change, negative = cytotoxic": -56.9}
{"molecule": "Cc1ccc(C)c(NS(=O)(=O)c2ccc(-c3cnc(C4CC4)o3)cc2)c1", "activity change, negative = cytotoxic": -54.7}
{"molecule": "CCN(CC)c1ccc2cc(-c3nc4ccccc4n3C)c(=O)oc2c1", "activity change, negative = cytotoxic": -63.6}
{"molecule": "N#Cc1c(NC(=O)/C=C/c2ccco2)sc2c1CCCC2", "activity change, negative = cytotoxic": -51}
{"molecule": "CSc1nc(N(C)NC(=O)c2cccc(C)c2)c2ccccc2n1", "activity change, negative = cytotoxic": -60.2}
{"molecule": "Cc1cccc(N(C)S(=O)(=O)c2ccc(-c3cnc(C4CC4)o3)cc2)c1", "activity change, negative = cytotoxic": -53.4}
